Data reported in paper doi:10.1101/355487.
Results are given in words; binding and its absence hold for the method and conditions named. Binding seen in cells or lysates may run through a third protein. Binding can be weak; no strength is given.

What follows are substances tested against T1, HJURP (endogenous, Xenopus egg extract) (Xenopus laevis (endogenous in egg extract)) (assay: co-IP).
T1 sequence: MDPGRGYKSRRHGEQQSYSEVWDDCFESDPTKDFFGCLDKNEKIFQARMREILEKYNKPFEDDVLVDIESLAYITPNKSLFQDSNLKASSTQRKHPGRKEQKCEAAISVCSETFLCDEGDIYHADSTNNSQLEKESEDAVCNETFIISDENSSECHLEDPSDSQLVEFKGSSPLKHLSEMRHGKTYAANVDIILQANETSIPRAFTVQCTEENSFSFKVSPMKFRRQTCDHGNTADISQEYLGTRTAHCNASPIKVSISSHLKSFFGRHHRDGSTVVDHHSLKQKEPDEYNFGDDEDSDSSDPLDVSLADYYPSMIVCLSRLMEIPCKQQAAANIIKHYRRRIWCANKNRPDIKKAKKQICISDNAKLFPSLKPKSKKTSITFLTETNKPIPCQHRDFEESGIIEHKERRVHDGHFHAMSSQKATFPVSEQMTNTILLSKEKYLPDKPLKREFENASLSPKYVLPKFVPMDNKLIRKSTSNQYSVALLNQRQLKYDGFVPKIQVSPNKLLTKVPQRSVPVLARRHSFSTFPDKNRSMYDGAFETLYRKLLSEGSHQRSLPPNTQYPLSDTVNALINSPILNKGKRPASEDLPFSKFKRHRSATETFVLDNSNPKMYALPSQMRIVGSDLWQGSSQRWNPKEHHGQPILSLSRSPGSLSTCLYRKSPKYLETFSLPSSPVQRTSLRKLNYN

Row | binding | Substance
1 | binds | Flag-M18BP1-1^(T166A, SANTA) (Xenopus laevis)
2 | binds | Flag-M18BP1-1^T166A (Xenopus laevis)
3 | binds | Flag-M18BP1-1^WT (full-length Xenopus laevis M18BP1-1)
